Small-molecule microarray binding calls

Oligonucleotides screened, 5′ to 3′:
TPP: TPP riboswitch RNA three-way junction, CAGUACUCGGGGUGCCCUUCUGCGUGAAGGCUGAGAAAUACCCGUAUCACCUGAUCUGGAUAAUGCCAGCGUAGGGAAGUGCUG. About 24,000 compounds screened, about 160 hits.
PreQ1: PreQ1 riboswitch RNA pseudoknot, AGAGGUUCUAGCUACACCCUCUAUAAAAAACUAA. From B. subtilis. About 24,000 compounds screened, about 170 hits.
SAM-II: SAM-II riboswitch RNA pseudoknot, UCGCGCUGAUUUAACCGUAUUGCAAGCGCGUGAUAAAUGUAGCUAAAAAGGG. About 21,000 compounds screened, about 200 hits.

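Each compound is printed as two spots on a slide made to bind it covalently, so it has no test concentration; the read-out is fluorescence of the bound, labelled oligonucleotide. The data file lists only calls. An earlier report of the laboratory on the PreQ1, TPP and SAM-II riboswitches (doi:10.1038/s41467-019-09493-3) used 1 µM RNA for 2 h and required a mean Z-score above 3 (spot signal-to-noise against the whole library), a score well above that on a control array, and duplicate spots agreeing (coefficient of variation under 100); it then also set aside compounds that hit other targets, which this list keeps. The cut-offs behind this list may differ. These are primary screening calls, not affinities; a compound without a hit may have attached poorly or may still bind in solution.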
“1” means called a hit, “0” means screened and not called a hit.
Compounds were drawn at random from those tested, without regard to their results.
A dash means that no call is listed here.

| SMILES | TPP | PreQ1 | SAM-II |
|---|---|---|---|
| `COc1cccc(-c2cnc(NCc3cccc(C)c3)n2C)c1` | 0 | 0 | 0 |
| `COc1ccc(NC(=S)N2CCN(CCO)CC2)c(OC)c1` | 0 | 0 | 0 |
| `CCOc1ccccc1NC1c2ccccc2C(=O)N1c1ccc(Cl)cc1` (stereo not given) | 0 | 0 | 0 |
| `NCCc1nnc(SCc2ccc(F)cc2)o1` | 0 | 0 | 0 |
| `Cc1ncc2c(c1CNC(=O)CCc1ccsc1)CCNC2` | 0 | 0 | 0 |
| `Cc1nn(CCO)cc1CN(C)CC1CCN(c2ccccc2)C1` (stereo not given) | 0 | 0 | 0 |
| `COc1ccc(OCC(O)Cn2c[n+](C)c3cc(C)c(C)cc32)cc1` (stereo not given) | 0 | 0 | 0 |
| `CN(C)CCCNc1ncnc2c1sc1nc3c(cc12)COC(C)(C)C3` | 0 | 0 | 0 |
| `CCOC(=O)c1cc(-c2cccnc2)nc2c(Cl)cc(Cl)cc12` | 0 | 0 | 0 |
| `CC(C)C[C@H](N)c1nnc(SCc2ccc(Br)cc2)o1` | 0 | 0 | - |
| `Cc1noc(C)c1CN(C)C(=O)C1CNCCO1` (stereo not given) | 0 | 0 | 0 |
| `CCCc1nc2ccccc2n1CC(O)COc1ccc(C(C)=O)cc1` (stereo not given) | 0 | 0 | 0 |
| `N[C@H]1CN(C(=O)COc2ccccc2Cl)C[C@@H]1C1CC1` | 0 | 0 | 0 |
| `CCc1cccc(C)c1NS(=O)(=O)c1cc(Br)cnc1N` | 0 | 0 | - |
| `Nc1ccccc1I` | 0 | 0 | 0 |
| `O=S1(=O)CC(O)C(N2CCC(c3nc4ccccc4s3)CC2)C1` (stereo not given) | 0 | 0 | 0 |
| `O=C(Cc1cnc2ccccn12)N1CCC2(CC1)c1ccccc1CC2O` (stereo not given) | 0 | 0 | 0 |
| `O/N=C(/c1ccccc1)c1ccc2c3c(cccc13)CC2` | 0 | 0 | 0 |
| `COc1ccc(C2OC3=Nc4cc(C)c(C)cc4NC3=C2O)cc1` (stereo not given) | 0 | 0 | 0 |
| `Cc1cc(NCCc2ccccc2)n2ncc(-c3ccccc3Cl)c2n1` | 0 | 0 | - |
| `OCc1nc2ccccc2n1CC(O)COc1ccc(Cl)cc1` (stereo not given) | 0 | 0 | 0 |
| `Cc1ccc(-c2nc(S(=O)(=O)c3ccccc3)c(NCc3cccnc3)o2)cc1` | 0 | 0 | - |
| `Cc1cc(C(=O)N2CCCC(O)(CO)CC2)c(-c2ccccc2)o1` (stereo not given) | 0 | 0 | 0 |
| `Cc1cc(C)c(Cn2c(CCCO)nc3ccccc32)c(C)c1` | 0 | 0 | - |
| `Cc1cc(C(=O)NCCO)ccc1[N+](=O)[O-]` | 0 | 0 | 0 |
| `O=C(c1ccc(S(=O)(=O)NCc2ccncc2)cc1)N1CCNCC1` | 0 | 0 | 0 |
| `COc1cc(CNCc2cccnc2)cc(Cl)c1OC` | 0 | 0 | 0 |
| `COCCc1nc(CN2CCCC(O)C2)n(-c2ccc(F)c(Cl)c2)n1` (stereo not given) | 0 | 0 | 0 |
| `CCCCSc1nc(N)cc(N2CCC(N3CCOC3=O)CC2)n1` | 0 | 0 | 0 |
| `Cc1ccc(-c2cc(C(F)(F)F)nn2-c2ccc(S(N)(=O)=O)cc2)cc1` | 0 | 0 | 0 |
| `CCOCCCNCc1ccc(-c2ccc(Cl)cc2)o1` | 0 | 0 | - |
| `COc1ccc(-c2nc3ccc(C4=NNC(=O)CC4C)cc3[nH]2)cc1` (stereo not given) | 0 | 0 | 0 |
| `CCCNC(=O)Nc1ccc(Oc2ncnc3cc(OC)c(OC)cc23)cc1Cl` | 0 | 0 | 0 |
| `Nc1ccc2nc(SCc3ccc(F)cc3)sc2c1` | 0 | 0 | 0 |
| `CCOc1cc(C2C(C#N)=C(N)OC3=C2C(=O)CC(C)(C)C3)ccc1O` (stereo not given) | 0 | 0 | 0 |
| `N#CC1C(=O)Nc2sc(C(=O)c3ccc(Br)cc3)c(N)c2C12CCCCC2` (stereo not given) | 0 | 0 | 0 |
| `C=CCNc1nc(-c2ccc(OC)cc2)cs1` | 0 | 0 | 0 |
| `Cc1nc[nH]c1-c1c(-c2ccccc2)ncn1CCCN(CCO)CCO` | 0 | 0 | 1 |
| `O=C(NCCNc1cccnc1)c1sc2cccc(F)c2c1Cl` | 0 | 0 | 0 |
| `CCC(CO)(CO)NC(=O)CC1C(=O)NCCN1Cc1ccc(C)o1` (stereo not given) | 0 | 0 | 0 |
| `Cc1nn2c(NCC(C)C)c3c(nc2c1-c1ccccc1)CCCC3` | 0 | 0 | - |
| `CCCN1C(=O)C2(c3ccccc31)c1c(oc3cc(C)c(C)cc3c1=O)C(=O)N2CCO` (stereo not given) | 0 | 0 | - |
| `CC(C(=O)N(CCO)Cc1nccn1C)N1CCCC1=O` (stereo not given) | 0 | 0 | 0 |
| `CCc1ccccc1NC(=O)Cn1nnc(C(=O)OC)c1N` | 0 | 0 | 0 |
| `C=CCNc1nc2c(c(=O)n(C)c(=O)n2C)n1CC` | 0 | 0 | 0 |
| `COc1ccc(-c2cc(C3CC3)c(C#N)c(N)n2)cc1F` | 0 | 0 | 0 |
| `Cc1cn2cc(CNC(=O)c3ccc(CN4CCC(O)CC4)[nH]c3=O)nc2s1` | 0 | 0 | 0 |
| `Cc1ccc(NC2c3ccccc3C(=O)N2c2ccccc2C)cc1` (stereo not given) | 0 | 0 | 0 |
| `Nc1ccc2[nH]c(CCCc3nc4ccccc4s3)nc2c1` | 0 | 0 | 0 |
| `CC1=C(C(=O)OC(C)(C)C)C2(C(=O)Nc3ccc(F)cc32)C(C#N)=C(N)O1` (stereo not given) | 0 | 0 | 0 |
| `CC(C)(C)NCC(=O)Nc1c2c(nc3c1CCC3)CCCC2.O=C(O)C(=O)O.O=CO` | 0 | 0 | 0 |
| `COc1ccccc1CNc1nc2c(C)cccc2cc1-c1noc(C(C)C)n1` | 0 | 0 | - |
| `c1cc2c(cc1CNC1CCOC3(CCOCC3)C1)OCCCO2` (stereo not given) | 0 | 0 | 0 |
| `Cc1ccc(-c2nc3cccc(C)n3c2Nc2ccc3c(c2)OCO3)o1` | 0 | 0 | 0 |
| `COC(=O)Cc1[nH]c(=O)[nH]c1C(=O)OC` | 0 | 0 | 0 |
| `COc1cc(S(N)(=O)=O)c(OC)cc1N` | 0 | 0 | 0 |
| `Cc1cccc(Cn2c(CN)n[nH]c2=O)c1` | 0 | 0 | 0 |
| `COc1ccc([C@H]2CN(C(=O)c3cccc(Cn4cccn4)c3)C[C@@H]2N)cc1` | 0 | 0 | 0 |
| `CCOC(=O)C(=O)C1C(=O)Nc2ccccc21` (stereo not given) | 0 | 0 | 0 |
| `CCCCCc1cn([C@@H]2c3ccccc3C[C@@H]2O)nn1` | 0 | 0 | 0 |
| `CCOC(=O)CCCN(c1[nH]c(C)c(C)c1C#N)S(=O)(=O)c1ccc(C)cc1` | 0 | 0 | 0 |
| `CN(Cc1cc2cc(F)ccc2[nH]1)C(=O)c1cccc(C2CCCNC2)c1` (stereo not given) | 0 | 0 | 0 |
| `N=c1c(C(=O)NCC2CCCO2)cc2c(=O)n3ccccc3nc2n1CCCO` (stereo not given) | 0 | 0 | 0 |
| `Cc1nc(C2CCCN2)n(-c2cccc3ccccc23)n1` (stereo not given) | 0 | 0 | 0 |
| `Cc1ccccc1NC(=O)Oc1cccc(OC(=O)c2ccccc2)c1` | 0 | 0 | 0 |
| `CC(C)=CC(=O)N1CCC2(CC1)NCCNC2=O` | 0 | 0 | 0 |
| `COc1ccc(S(=O)(=O)n2nc(OC(=O)C3CCCCC3)cc2N)cc1` | 0 | 0 | 0 |
| `CC1(C)CC2=Nc3ccccc3NC(c3ccc(F)cc3)C2=C(O)C1` (stereo not given) | 0 | 0 | 0 |
| `Cc1nc2cc(CC(=O)N3CCC(O)(CO)CC3)ccc2[nH]1` | 0 | 0 | 0 |
| `CC(C)C(O)(C#CCN(CCO)CCO)c1ccccc1.Cl` (stereo not given) | 0 | 0 | 0 |
| `c1cnc(-c2nc(Cn3cc(C4CCCNC4)nn3)cs2)nc1` (stereo not given) | 0 | 0 | 0 |
| `NCCc1nnc(SCc2ccccc2)o1` | 0 | 0 | 0 |
| `COc1cccc(CNc2nc3ccc(C)cc3nc2-n2nc(C)cc2C)c1` | 0 | 0 | 0 |
| `Cc1cc(NC2CCCC2)n2ncc(-c3ccccc3)c2n1` | 0 | 0 | - |
| `CCCCCNC(=O)N1CCC(CN(Cc2ccc(Cl)cc2)Cc2ccc([N+](=O)[O-])s2)C1` (stereo not given) | 0 | 0 | 0 |
| `CCOc1ccc(CNCc2ccccc2OC)cc1` | 0 | 0 | 0 |

Once more, the final 6:

SMILES,TPP,PreQ1,SAM-II
c1cnc(-c2nc(Cn3cc(C4CCCNC4)nn3)cs2)nc1 (stereo not given),0,0,0
NCCc1nnc(SCc2ccccc2)o1,0,0,0
COc1cccc(CNc2nc3ccc(C)cc3nc2-n2nc(C)cc2C)c1,0,0,0
Cc1cc(NC2CCCC2)n2ncc(-c3ccccc3)c2n1,0,0,-
CCCCCNC(=O)N1CCC(CN(Cc2ccc(Cl)cc2)Cc2ccc([N+](=O)[O-])s2)C1 (stereo not given),0,0,0
CCOc1ccc(CNCc2ccccc2OC)cc1,0,0,0

Calls as published in the ROBIN set (doi:10.1002/anie.202211358).